Source: the supplement of paper PMC12823440, “Inhibitors supercharge kinase turnover through native proteolytic circuits” (Nature, 2025)
The list shows a part of the results. Hit calls seldom repeat between salt and free forms of one compound.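 In K562 cells expressing nanoluciferase-fused kinases, luminescence was recorded at 4 h intervals between 2 and 18 h, normalized as percent of control with DMSO at 100% and a positive control at 0%. A significant (2 sigma) signal drop marks a time point as decreased. The authors' rule for a hit is not shown and takes in more than the number of time points.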

By UniProt entry, the sequences of proteins in these tests, tags left out. Where a name states a change or a piece, a line headed by the entry shows the natural chain unless it says otherwise.
UniProt Q15208: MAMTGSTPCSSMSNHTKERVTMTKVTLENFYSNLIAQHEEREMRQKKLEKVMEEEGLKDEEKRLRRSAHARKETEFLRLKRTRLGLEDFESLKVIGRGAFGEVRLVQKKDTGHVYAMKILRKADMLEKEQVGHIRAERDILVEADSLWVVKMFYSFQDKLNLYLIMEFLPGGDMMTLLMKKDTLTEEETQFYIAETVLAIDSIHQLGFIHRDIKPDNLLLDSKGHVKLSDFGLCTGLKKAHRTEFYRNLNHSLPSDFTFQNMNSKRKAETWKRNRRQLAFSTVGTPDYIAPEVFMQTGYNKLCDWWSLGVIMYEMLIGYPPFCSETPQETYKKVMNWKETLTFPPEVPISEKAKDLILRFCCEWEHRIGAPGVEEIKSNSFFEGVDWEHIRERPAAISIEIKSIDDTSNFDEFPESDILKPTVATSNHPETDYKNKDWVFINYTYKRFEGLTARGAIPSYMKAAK
UniProt P42680: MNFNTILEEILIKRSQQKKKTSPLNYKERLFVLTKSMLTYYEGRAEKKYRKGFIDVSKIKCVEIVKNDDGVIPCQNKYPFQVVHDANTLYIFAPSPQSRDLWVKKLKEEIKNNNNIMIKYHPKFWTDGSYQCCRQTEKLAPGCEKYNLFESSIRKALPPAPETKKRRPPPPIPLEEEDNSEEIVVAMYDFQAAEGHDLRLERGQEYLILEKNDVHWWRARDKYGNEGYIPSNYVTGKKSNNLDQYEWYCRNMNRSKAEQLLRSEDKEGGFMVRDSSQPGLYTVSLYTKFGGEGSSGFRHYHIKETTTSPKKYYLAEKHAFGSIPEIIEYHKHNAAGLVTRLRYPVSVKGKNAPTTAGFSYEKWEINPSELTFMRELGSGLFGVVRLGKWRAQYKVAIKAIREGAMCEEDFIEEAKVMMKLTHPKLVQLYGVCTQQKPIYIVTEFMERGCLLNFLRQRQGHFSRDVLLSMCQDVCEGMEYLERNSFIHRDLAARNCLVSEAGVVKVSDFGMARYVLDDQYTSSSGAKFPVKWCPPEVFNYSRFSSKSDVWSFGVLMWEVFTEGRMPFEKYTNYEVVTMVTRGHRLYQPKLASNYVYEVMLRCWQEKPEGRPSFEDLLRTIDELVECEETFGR
UniProt Q6PHR2: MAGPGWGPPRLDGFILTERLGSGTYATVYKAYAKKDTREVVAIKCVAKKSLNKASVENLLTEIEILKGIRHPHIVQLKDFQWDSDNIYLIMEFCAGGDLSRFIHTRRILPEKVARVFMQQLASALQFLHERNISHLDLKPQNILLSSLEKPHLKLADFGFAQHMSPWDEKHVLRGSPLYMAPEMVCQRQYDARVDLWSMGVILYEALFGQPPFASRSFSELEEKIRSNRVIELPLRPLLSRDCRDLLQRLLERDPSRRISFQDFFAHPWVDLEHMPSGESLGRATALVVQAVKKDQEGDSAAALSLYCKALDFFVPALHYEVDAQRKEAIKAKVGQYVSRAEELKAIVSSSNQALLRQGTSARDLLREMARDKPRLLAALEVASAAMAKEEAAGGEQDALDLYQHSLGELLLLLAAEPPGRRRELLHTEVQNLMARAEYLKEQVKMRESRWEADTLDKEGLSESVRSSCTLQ
UniProt P07947, whole entry, looked up: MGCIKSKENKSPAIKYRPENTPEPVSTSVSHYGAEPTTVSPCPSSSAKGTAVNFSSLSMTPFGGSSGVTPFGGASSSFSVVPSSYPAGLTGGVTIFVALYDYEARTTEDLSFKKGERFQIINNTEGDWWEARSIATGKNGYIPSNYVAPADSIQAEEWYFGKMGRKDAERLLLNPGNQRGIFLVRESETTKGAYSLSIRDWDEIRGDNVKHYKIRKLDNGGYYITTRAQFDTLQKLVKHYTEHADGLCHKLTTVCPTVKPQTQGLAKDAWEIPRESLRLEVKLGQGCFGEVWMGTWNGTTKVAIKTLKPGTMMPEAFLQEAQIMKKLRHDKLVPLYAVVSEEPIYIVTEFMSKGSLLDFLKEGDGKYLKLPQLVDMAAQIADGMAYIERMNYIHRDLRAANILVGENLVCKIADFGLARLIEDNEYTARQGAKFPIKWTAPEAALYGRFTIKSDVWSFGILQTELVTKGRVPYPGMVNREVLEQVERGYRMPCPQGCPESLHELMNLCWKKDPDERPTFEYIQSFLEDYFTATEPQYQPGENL
UniProt P00519, whole entry: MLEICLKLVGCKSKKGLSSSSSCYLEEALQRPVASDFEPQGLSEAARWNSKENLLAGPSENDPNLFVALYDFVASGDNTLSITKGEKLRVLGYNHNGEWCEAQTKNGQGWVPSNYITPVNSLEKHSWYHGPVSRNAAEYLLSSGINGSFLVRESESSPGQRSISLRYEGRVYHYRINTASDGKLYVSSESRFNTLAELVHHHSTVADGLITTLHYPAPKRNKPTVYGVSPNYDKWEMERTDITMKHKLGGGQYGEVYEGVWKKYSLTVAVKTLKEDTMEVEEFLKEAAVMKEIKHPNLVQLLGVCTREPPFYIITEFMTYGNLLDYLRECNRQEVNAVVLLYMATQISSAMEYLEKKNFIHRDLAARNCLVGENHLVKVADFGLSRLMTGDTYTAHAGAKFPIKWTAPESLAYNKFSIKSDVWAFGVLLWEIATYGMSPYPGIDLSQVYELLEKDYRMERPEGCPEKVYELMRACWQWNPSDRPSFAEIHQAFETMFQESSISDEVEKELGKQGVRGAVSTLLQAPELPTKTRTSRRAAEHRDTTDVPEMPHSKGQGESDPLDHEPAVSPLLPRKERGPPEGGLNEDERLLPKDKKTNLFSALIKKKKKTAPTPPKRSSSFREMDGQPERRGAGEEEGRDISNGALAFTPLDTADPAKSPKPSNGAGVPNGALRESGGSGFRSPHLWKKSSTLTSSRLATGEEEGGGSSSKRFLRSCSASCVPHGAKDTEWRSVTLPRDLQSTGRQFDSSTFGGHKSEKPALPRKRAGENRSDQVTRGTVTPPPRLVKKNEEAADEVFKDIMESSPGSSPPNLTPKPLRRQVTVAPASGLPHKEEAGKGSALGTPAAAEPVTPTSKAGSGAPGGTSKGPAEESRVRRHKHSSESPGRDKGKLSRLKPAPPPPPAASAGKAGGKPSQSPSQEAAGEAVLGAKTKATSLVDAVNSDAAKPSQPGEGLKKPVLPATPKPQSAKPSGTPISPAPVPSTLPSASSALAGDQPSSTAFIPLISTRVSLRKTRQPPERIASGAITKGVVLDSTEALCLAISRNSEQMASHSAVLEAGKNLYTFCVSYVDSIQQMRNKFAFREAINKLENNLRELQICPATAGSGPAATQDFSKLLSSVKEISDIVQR
UniProt P10398: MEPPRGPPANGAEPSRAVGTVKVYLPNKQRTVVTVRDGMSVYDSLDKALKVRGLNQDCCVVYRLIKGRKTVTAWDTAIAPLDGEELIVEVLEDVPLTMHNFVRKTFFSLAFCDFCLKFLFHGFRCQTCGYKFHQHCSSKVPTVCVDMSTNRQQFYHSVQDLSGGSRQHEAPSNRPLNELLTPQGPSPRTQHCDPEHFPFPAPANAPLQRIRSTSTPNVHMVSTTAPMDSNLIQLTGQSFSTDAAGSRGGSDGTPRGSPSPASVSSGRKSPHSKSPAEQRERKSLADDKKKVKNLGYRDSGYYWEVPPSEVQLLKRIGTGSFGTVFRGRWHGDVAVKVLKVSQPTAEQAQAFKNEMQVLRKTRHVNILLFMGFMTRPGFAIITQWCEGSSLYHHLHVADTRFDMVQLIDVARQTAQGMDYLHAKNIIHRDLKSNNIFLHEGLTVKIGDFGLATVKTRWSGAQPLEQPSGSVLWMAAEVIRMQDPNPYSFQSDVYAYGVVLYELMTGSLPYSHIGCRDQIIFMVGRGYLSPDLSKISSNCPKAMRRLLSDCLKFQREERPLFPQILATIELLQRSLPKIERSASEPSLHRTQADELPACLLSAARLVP
UniProt Q96GD4, whole entry: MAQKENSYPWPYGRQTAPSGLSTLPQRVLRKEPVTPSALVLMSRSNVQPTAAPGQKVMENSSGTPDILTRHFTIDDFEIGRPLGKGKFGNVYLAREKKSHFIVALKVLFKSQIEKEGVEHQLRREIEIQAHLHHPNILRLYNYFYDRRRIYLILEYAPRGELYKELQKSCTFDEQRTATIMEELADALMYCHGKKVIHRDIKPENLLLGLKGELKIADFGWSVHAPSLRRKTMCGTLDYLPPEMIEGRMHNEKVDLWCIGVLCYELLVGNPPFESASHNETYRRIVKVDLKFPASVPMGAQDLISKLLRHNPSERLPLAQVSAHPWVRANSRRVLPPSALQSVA
UniProt Q9UQB9: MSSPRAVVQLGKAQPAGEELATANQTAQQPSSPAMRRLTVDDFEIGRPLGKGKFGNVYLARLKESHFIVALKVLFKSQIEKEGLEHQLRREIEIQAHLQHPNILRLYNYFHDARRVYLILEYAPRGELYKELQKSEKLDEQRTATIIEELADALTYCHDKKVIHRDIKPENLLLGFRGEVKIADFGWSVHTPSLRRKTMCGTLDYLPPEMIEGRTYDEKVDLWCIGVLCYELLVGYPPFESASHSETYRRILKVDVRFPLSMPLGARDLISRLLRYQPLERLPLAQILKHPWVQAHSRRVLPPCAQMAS
UniProt P51813: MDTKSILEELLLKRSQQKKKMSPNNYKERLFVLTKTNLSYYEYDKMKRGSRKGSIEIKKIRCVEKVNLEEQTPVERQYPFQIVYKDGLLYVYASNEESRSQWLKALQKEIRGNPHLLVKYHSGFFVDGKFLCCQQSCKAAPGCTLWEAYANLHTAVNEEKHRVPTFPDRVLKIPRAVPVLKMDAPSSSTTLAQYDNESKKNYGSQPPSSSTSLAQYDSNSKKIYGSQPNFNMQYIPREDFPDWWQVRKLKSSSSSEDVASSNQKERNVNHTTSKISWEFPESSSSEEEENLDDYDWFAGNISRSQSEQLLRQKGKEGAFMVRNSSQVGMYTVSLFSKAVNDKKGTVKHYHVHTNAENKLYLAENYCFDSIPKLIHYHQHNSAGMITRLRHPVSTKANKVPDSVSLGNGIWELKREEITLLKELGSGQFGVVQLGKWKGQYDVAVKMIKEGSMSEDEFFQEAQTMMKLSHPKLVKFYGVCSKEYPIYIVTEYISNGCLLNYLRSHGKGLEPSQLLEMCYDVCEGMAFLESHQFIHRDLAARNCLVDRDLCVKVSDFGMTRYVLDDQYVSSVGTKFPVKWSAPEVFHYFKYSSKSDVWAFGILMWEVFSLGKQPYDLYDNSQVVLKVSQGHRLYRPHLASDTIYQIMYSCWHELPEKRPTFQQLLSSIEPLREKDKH
UniProt P15056, whole entry, looked up: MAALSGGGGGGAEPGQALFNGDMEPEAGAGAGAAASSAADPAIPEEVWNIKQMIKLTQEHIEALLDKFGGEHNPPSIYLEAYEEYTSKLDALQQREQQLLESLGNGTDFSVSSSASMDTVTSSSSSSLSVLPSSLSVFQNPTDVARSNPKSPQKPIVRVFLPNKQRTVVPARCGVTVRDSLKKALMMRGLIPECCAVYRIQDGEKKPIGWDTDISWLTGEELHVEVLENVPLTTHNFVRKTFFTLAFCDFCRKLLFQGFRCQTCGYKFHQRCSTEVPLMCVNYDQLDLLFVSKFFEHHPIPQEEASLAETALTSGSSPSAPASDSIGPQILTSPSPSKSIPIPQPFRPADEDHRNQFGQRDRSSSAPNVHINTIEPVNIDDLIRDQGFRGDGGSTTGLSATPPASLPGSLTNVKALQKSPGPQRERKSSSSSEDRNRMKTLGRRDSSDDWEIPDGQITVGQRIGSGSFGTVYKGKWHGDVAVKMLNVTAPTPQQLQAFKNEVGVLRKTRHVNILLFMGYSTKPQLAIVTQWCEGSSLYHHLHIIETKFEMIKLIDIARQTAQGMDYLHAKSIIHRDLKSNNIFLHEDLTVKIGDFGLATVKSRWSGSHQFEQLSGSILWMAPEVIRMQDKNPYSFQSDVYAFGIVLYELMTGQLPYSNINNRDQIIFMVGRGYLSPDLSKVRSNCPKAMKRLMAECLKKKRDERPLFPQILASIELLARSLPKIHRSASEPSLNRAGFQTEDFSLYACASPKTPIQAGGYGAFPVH
UniProt Q06187: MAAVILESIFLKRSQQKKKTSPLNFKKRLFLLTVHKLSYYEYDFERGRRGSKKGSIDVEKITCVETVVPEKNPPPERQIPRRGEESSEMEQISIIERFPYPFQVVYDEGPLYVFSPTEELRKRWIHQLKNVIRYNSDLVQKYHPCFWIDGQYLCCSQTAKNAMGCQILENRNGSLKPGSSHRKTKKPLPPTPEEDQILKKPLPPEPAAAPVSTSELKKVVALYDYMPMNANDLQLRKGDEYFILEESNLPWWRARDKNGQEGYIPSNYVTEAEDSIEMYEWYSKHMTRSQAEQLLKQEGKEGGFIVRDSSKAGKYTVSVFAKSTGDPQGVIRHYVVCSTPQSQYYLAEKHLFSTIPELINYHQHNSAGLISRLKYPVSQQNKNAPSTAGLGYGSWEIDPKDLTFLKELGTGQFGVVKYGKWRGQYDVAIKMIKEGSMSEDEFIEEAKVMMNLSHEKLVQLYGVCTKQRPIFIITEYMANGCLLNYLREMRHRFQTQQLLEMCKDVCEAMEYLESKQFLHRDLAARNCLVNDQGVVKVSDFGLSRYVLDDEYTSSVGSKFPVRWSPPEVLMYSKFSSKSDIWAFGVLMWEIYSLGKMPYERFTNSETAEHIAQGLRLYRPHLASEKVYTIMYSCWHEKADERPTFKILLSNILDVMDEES

Key:
Details in all cases: K562; 2-18 h
STK38 = STK38 (UniProt Q15208); assay: kinase-Nluc reporter destabilization hit call (1 = scored as downregulated) (binary); higher = compound decreases kinase abundance
SYK = SYK (UniProt P43405); assay: as above
TEC = TEC (UniProt P42680); assay: as above
TYK2 = TYK2 (UniProt P29597); assay: as above
ULK3 = ULK3 (UniProt Q6PHR2); assay: as above
YES1 = YES1 (UniProt P07947); assay: as above
ZAK = ZAK (UniProt Q9NYL2); assay: as above
ZAP70 = ZAP70 (UniProt P43403); assay: as above
ABL1 = ABL1 (UniProt P00519); assay: number of time points (of 5) at which kinase-Nluc abundance scored as decreased, DMSO-normalised (count); higher = more persistent destabilization
AKT1 = AKT1 (UniProt P31749); assay: as above
ALK = ALK (UniProt Q9UM73); assay: as above
ARAF = ARAF (UniProt P10398); assay: as above
AURKA = AURKA (UniProt O14965); assay: as above
AURKB = AURKB (UniProt Q96GD4); assay: as above
AURKC = AURKC (UniProt Q9UQB9); assay: as above
BLK = BLK (UniProt P51451); assay: as above
BMX = BMX (UniProt P51813); assay: as above
BRAF = BRAF (UniProt P15056); assay: as above
BRAF_V600E = assay: as above
BTK = BTK (UniProt Q06187); assay: as above

COC(=O)Nc1ccc(-c2nc(N3CCOCC3)c3cnn(C4CCN(Cc5cccnc5)CC4)c3n2)cc1 (10 µM)
inactive: kinase-Nluc reporter destabilization hit call (STK38) 0 | kinase-Nluc reporter destabilization hit call (SYK) 0 | kinase-Nluc reporter destabilization hit call (TEC) 0 | kinase-Nluc reporter destabilization hit call (TYK2) 0 | kinase-Nluc reporter destabilization hit call (ULK3) 0 | kinase-Nluc reporter destabilization hit call (YES1) 0 | kinase-Nluc reporter destabilization hit call (ZAK) 0 | kinase-Nluc reporter destabilization hit call (ZAP70) 0
0: number of time points (ABL1) | number of time points (AKT1) | number of time points (ALK) | number of time points (ARAF) | number of time points (AURKA) | number of time points (AURKB) | number of time points (AURKC) | number of time points (BLK) | number of time points (BMX) | number of time points (BRAF) | number of time points (BRAF_V600E) | number of time points (BTK)

Nc1nccc(-c2c(-c3ccc(F)cc3)ncn2C2CCCCC2)n1 (10 µM)
inactive: kinase-Nluc reporter destabilization hit call (STK38) 0 | kinase-Nluc reporter destabilization hit call (SYK) 0 | kinase-Nluc reporter destabilization hit call (TEC) 0 | kinase-Nluc reporter destabilization hit call (TYK2) 0 | kinase-Nluc reporter destabilization hit call (ULK3) 0 | kinase-Nluc reporter destabilization hit call (YES1) 0 | kinase-Nluc reporter destabilization hit call (ZAK) 0 | kinase-Nluc reporter destabilization hit call (ZAP70) 0
0: number of time points (ABL1) | number of time points (AKT1) | number of time points (ALK) | number of time points (ARAF) | number of time points (AURKA) | number of time points (AURKB) | number of time points (AURKC) | number of time points (BLK) | number of time points (BMX) | number of time points (BRAF) | number of time points (BRAF_V600E) | number of time points (BTK)

Cc1cc([C@@H](C)Nc2ccccc2C(=O)O)c2nc(N3CCOCC3)cc(=O)n2c1 (10 µM)
inactive: kinase-Nluc reporter destabilization hit call (STK38) 0 | kinase-Nluc reporter destabilization hit call (SYK) 0 | kinase-Nluc reporter destabilization hit call (TEC) 0 | kinase-Nluc reporter destabilization hit call (TYK2) 0 | kinase-Nluc reporter destabilization hit call (ULK3) 0 | kinase-Nluc reporter destabilization hit call (YES1) 0 | kinase-Nluc reporter destabilization hit call (ZAK) 0 | kinase-Nluc reporter destabilization hit call (ZAP70) 0
0: number of time points (ABL1) | number of time points (AKT1) | number of time points (ALK) | number of time points (ARAF) | number of time points (AURKA) | number of time points (AURKB) | number of time points (AURKC) | number of time points (BLK) | number of time points (BMX) | number of time points (BRAF) | number of time points (BRAF_V600E) | number of time points (BTK)

CN1CCN(c2ccc(Nc3ncc4cc(C#N)c(=O)n(C5CCCC5)c4n3)cc2)CC1 (10 µM)
0: number of time points (ABL1) | number of time points (AKT1) | number of time points (ALK) | number of time points (ARAF) | number of time points (AURKB) | number of time points (AURKC) | number of time points (BLK) | number of time points (BMX) | number of time points (BRAF) | number of time points (BRAF_V600E) | number of time points (BTK)
1: number of time points (AURKA)
inactive: kinase-Nluc reporter destabilization hit call (STK38) 0 | kinase-Nluc reporter destabilization hit call (SYK) 0 | kinase-Nluc reporter destabilization hit call (TEC) 0 | kinase-Nluc reporter destabilization hit call (TYK2) 0 | kinase-Nluc reporter destabilization hit call (ULK3) 0 | kinase-Nluc reporter destabilization hit call (YES1) 0 | kinase-Nluc reporter destabilization hit call (ZAK) 0 | kinase-Nluc reporter destabilization hit call (ZAP70) 0

O=C(ON=C1c2ccccc2-c2nc3ccccc3nc21)c1ccco1 (2.5 µM)
0: number of time points (ABL1) | number of time points (AKT1) | number of time points (ALK) | number of time points (ARAF) | number of time points (AURKA) | number of time points (AURKB) | number of time points (AURKC) | number of time points (BLK) | number of time points (BMX) | number of time points (BRAF) | number of time points (BRAF_V600E) | number of time points (BTK)
inactive: kinase-Nluc reporter destabilization hit call (STK38) 0 | kinase-Nluc reporter destabilization hit call (SYK) 0 | kinase-Nluc reporter destabilization hit call (TEC) 0 | kinase-Nluc reporter destabilization hit call (TYK2) 0 | kinase-Nluc reporter destabilization hit call (ULK3) 0 | kinase-Nluc reporter destabilization hit call (YES1) 0 | kinase-Nluc reporter destabilization hit call (ZAK) 0 | kinase-Nluc reporter destabilization hit call (ZAP70) 0

Cc1cc(Nc2cc(N3CCN(C)CC3)nc(Nc3ccc([N+](=O)[O-])cc3)n2)n[nH]1 (2.5 µM)
2: number of time points (ABL1)
4: number of time points (BMX)
inactive: kinase-Nluc reporter destabilization hit call (STK38) 0 | kinase-Nluc reporter destabilization hit call (SYK) 0 | kinase-Nluc reporter destabilization hit call (TEC) 0 | kinase-Nluc reporter destabilization hit call (TYK2) 0 | kinase-Nluc reporter destabilization hit call (ULK3) 0 | kinase-Nluc reporter destabilization hit call (YES1) 0 | kinase-Nluc reporter destabilization hit call (ZAK) 0 | kinase-Nluc reporter destabilization hit call (ZAP70) 0
0: number of time points (AKT1) | number of time points (ARAF) | number of time points (AURKA) | number of time points (AURKB) | number of time points (AURKC) | number of time points (BLK) | number of time points (BRAF) | number of time points (BRAF_V600E) | number of time points (BTK)
1: number of time points (ALK)

CC1=C(C(=O)Nc2cc3cn[nH]c3cc2F)C(c2ccc(C(F)(F)F)cc2)CC(=O)N1 (stereo not given) (10 µM)
inactive: kinase-Nluc reporter destabilization hit call (STK38) 0 | kinase-Nluc reporter destabilization hit call (SYK) 0 | kinase-Nluc reporter destabilization hit call (TEC) 0 | kinase-Nluc reporter destabilization hit call (TYK2) 0 | kinase-Nluc reporter destabilization hit call (ULK3) 0 | kinase-Nluc reporter destabilization hit call (YES1) 0 | kinase-Nluc reporter destabilization hit call (ZAK) 0 | kinase-Nluc reporter destabilization hit call (ZAP70) 0
0: number of time points (ABL1) | number of time points (AKT1) | number of time points (ALK) | number of time points (ARAF) | number of time points (AURKA) | number of time points (AURKB) | number of time points (AURKC) | number of time points (BLK) | number of time points (BMX) | number of time points (BRAF) | number of time points (BRAF_V600E) | number of time points (BTK)

COc1ccc(S(=O)(=O)Nc2cc(-c3c(O)ccc4ccccc34)c(O)c3ccccc23)cc1 (10 µM)
0: number of time points (ABL1) | number of time points (AKT1) | number of time points (ALK) | number of time points (ARAF) | number of time points (AURKA) | number of time points (AURKB) | number of time points (AURKC) | number of time points (BLK) | number of time points (BMX) | number of time points (BRAF) | number of time points (BRAF_V600E) | number of time points (BTK)
inactive: kinase-Nluc reporter destabilization hit call (STK38) 0 | kinase-Nluc reporter destabilization hit call (SYK) 0 | kinase-Nluc reporter destabilization hit call (TEC) 0 | kinase-Nluc reporter destabilization hit call (TYK2) 0 | kinase-Nluc reporter destabilization hit call (ULK3) 0 | kinase-Nluc reporter destabilization hit call (YES1) 0 | kinase-Nluc reporter destabilization hit call (ZAK) 0 | kinase-Nluc reporter destabilization hit call (ZAP70) 0

Random excerpt: 2 entries already listed
Cc1cc([C@@H](C)Nc2ccccc2C(=O)O)c2nc(N3CCOCC3)cc(=O)n2c1 (10 µM)
inactive: kinase-Nluc reporter destabilization hit call (STK38) 0 | kinase-Nluc reporter destabilization hit call (SYK) 0 | kinase-Nluc reporter destabilization hit call (TEC) 0 | kinase-Nluc reporter destabilization hit call (TYK2) 0 | kinase-Nluc reporter destabilization hit call (ULK3) 0 | kinase-Nluc reporter destabilization hit call (YES1) 0 | kinase-Nluc reporter destabilization hit call (ZAK) 0 | kinase-Nluc reporter destabilization hit call (ZAP70) 0
0: number of time points (ABL1) | number of time points (AKT1) | number of time points (ALK) | number of time points (ARAF) | number of time points (AURKA) | number of time points (AURKB) | number of time points (AURKC) | number of time points (BLK) | number of time points (BMX) | number of time points (BRAF) | number of time points (BRAF_V600E) | number of time points (BTK)

CC1=C(C(=O)Nc2cc3cn[nH]c3cc2F)C(c2ccc(C(F)(F)F)cc2)CC(=O)N1 (stereo not given) (10 µM)
inactive: kinase-Nluc reporter destabilization hit call (STK38) 0 | kinase-Nluc reporter destabilization hit call (SYK) 0 | kinase-Nluc reporter destabilization hit call (TEC) 0 | kinase-Nluc reporter destabilization hit call (TYK2) 0 | kinase-Nluc reporter destabilization hit call (ULK3) 0 | kinase-Nluc reporter destabilization hit call (YES1) 0 | kinase-Nluc reporter destabilization hit call (ZAK) 0 | kinase-Nluc reporter destabilization hit call (ZAP70) 0
0: number of time points (ABL1) | number of time points (AKT1) | number of time points (ALK) | number of time points (ARAF) | number of time points (AURKA) | number of time points (AURKB) | number of time points (AURKC) | number of time points (BLK) | number of time points (BMX) | number of time points (BRAF) | number of time points (BRAF_V600E) | number of time points (BTK)

The list continues:

Fc1ccc2[nH]ccc2c1-c1nc(N2CCOCC2)c2sc(CN3CCN(CC4CC4)CC3)cc2n1 (10 µM)
inactive: kinase-Nluc reporter destabilization hit call (STK38) 0 | kinase-Nluc reporter destabilization hit call (SYK) 0 | kinase-Nluc reporter destabilization hit call (TEC) 0 | kinase-Nluc reporter destabilization hit call (TYK2) 0 | kinase-Nluc reporter destabilization hit call (ULK3) 0 | kinase-Nluc reporter destabilization hit call (YES1) 0 | kinase-Nluc reporter destabilization hit call (ZAK) 0 | kinase-Nluc reporter destabilization hit call (ZAP70) 0
0: number of time points (ABL1) | number of time points (AKT1) | number of time points (ALK) | number of time points (ARAF) | number of time points (AURKA) | number of time points (AURKB) | number of time points (AURKC) | number of time points (BLK) | number of time points (BMX) | number of time points (BRAF) | number of time points (BRAF_V600E) | number of time points (BTK)

Cc1cccc(/C=N/Nc2cc(N3CCOCC3)n3nc(-c4ccncc4)cc3n2)c1 (10 µM)
0: number of time points (AKT1) | number of time points (ALK) | number of time points (ARAF) | number of time points (AURKA) | number of time points (AURKB) | number of time points (AURKC) | number of time points (BLK) | number of time points (BRAF) | number of time points (BRAF_V600E) | number of time points (BTK)
2: number of time points (BMX)
inactive: kinase-Nluc reporter destabilization hit call (STK38) 0 | kinase-Nluc reporter destabilization hit call (SYK) 0 | kinase-Nluc reporter destabilization hit call (TEC) 0 | kinase-Nluc reporter destabilization hit call (TYK2) 0 | kinase-Nluc reporter destabilization hit call (ULK3) 0 | kinase-Nluc reporter destabilization hit call (YES1) 0 | kinase-Nluc reporter destabilization hit call (ZAK) 0 | kinase-Nluc reporter destabilization hit call (ZAP70) 0
1: number of time points (ABL1)

NCC1CCC(CNc2nc(NCc3ccccc3OC(F)(F)F)ncc2[N+](=O)[O-])CC1 (stereo not given) [PKC-theta inhibitor] (10 µM)
0: number of time points (AKT1) | number of time points (ARAF) | number of time points (AURKB) | number of time points (AURKC) | number of time points (BMX) | number of time points (BRAF) | number of time points (BRAF_V600E) | number of time points (BTK)
4: number of time points (ALK) | number of time points (AURKA)
active: kinase-Nluc reporter destabilization hit call (TYK2) 1
1: number of time points (BLK)
5: number of time points (ABL1)
inactive: kinase-Nluc reporter destabilization hit call (STK38) 0 | kinase-Nluc reporter destabilization hit call (SYK) 0 | kinase-Nluc reporter destabilization hit call (TEC) 0 | kinase-Nluc reporter destabilization hit call (ULK3) 0 | kinase-Nluc reporter destabilization hit call (YES1) 0 | kinase-Nluc reporter destabilization hit call (ZAK) 0 | kinase-Nluc reporter destabilization hit call (ZAP70) 0
